From US6492344B1, “Syndecan enhancer element and syndecan stimulation of cellular differentiation” (Biotie Therapies Corp., priority 1993, dated 2002)
At least one compound was matched to its structure with a doubt left.

System: FGF-inducible Response Element (FiRE)
Test: FiRE CAT assay with AP-1 activating agents in stable 3T3NIH cells
Type: cell-based, mouse
Settings: minimal promoter, agents known to activate AP-1
Description: FIG. 24. […] Different agents known to induce fos-jun complexes and activate AP-1 driven promoters, were tested for FiRE activation in CAT assay with the minimal promoter transferred in stable 3T3NIH cells in the presence of protein kinase C activator (TPA, 10 mm), protein phosphatase 1 and 2 inhibitors (DA and calycalin A), a cAMP activator (forskolin), or a tyrosine phosphatase inhibitor (orthovanadate).
Agents Activating AP-1 Are Not Sufficient for FiRE Activation. Since FiRE contains AP-1 transcription factors, whose activation is well characterized, we tested chemicals known to cause AP-1 dependent gene activation. These included the protein kinase C (PKC) activator 12-O-tetradecanoylphorpol-13-acetate (TPA), protein-phosphate-1 and -2 inhibitors okadaic acid and calyculin A, cAMP activator forskolin and tyrosine kinase phosphatase inhibitor orthovanadate (FIG. 24a).

C=C[C@@]1(C)CC(=O)[C@]2(O)[C@@]3(C)[C@@H](O)CCC(C)(C)[C@@H]3[C@H](O)[C@H](OC(C)=O)[C@@]2(C)O1 [forskolin]
FiRE activation (CAT assay): none of the other compounds known to induce immediate early genes fos and jun and AP-1 driven promoters, were able to activate FiRE
